Laboratory results from the supplement of paper PMC12823440, “Inhibitors supercharge kinase turnover through native proteolytic circuits” (Nature, 2025).
Where a name gives a salt, the structure may show the parent alone. The list shows a part of the results. Hit calls seldom repeat between salt and free forms of one compound.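 Kinases were expressed as nanoluciferase fusions in K562 cells and luminescence was read every 4 h between 2 and 18 h as percent of control, DMSO set to 100% and a positive control to 0%. A time point counts as decreased when the signal drops significantly (2 sigma). The hit call is the authors' own, does not follow from the count of time points alone, and its rule is not shown.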

By UniProt entry, the sequences of proteins in these tests, tags left out. Where a name states a change or a piece, a line headed by the entry shows the natural chain unless it says otherwise.
UniProt P07949, whole entry, looked up: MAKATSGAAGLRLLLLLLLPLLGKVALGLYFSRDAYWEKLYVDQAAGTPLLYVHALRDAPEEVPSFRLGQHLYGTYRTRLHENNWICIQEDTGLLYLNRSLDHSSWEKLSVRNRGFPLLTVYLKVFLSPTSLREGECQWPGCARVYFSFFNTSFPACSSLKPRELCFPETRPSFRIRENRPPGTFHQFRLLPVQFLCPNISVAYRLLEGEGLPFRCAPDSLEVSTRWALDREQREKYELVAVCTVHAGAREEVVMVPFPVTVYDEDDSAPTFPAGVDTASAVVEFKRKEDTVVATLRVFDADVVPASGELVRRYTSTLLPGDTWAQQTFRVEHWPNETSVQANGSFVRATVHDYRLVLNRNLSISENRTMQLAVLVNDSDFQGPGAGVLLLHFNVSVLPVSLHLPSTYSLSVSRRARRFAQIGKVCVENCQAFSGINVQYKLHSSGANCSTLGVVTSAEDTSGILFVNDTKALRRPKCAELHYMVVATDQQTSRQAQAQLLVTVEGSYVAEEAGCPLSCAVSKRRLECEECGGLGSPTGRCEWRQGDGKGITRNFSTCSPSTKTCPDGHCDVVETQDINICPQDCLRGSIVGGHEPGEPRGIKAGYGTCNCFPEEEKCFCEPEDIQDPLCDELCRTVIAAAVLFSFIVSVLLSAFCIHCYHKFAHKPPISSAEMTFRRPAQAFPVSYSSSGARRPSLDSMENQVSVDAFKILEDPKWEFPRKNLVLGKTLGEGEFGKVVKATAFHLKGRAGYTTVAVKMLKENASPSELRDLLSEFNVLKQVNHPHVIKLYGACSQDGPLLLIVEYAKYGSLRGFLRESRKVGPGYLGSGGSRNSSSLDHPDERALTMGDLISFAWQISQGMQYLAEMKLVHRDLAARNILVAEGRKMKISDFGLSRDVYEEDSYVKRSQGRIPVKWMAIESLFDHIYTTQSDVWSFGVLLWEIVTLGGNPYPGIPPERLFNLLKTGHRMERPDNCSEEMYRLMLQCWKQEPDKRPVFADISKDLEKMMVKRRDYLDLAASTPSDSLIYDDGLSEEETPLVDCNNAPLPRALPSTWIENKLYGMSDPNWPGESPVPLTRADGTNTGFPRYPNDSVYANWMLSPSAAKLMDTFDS
UniProt P07949, whole entry M918T, looked up: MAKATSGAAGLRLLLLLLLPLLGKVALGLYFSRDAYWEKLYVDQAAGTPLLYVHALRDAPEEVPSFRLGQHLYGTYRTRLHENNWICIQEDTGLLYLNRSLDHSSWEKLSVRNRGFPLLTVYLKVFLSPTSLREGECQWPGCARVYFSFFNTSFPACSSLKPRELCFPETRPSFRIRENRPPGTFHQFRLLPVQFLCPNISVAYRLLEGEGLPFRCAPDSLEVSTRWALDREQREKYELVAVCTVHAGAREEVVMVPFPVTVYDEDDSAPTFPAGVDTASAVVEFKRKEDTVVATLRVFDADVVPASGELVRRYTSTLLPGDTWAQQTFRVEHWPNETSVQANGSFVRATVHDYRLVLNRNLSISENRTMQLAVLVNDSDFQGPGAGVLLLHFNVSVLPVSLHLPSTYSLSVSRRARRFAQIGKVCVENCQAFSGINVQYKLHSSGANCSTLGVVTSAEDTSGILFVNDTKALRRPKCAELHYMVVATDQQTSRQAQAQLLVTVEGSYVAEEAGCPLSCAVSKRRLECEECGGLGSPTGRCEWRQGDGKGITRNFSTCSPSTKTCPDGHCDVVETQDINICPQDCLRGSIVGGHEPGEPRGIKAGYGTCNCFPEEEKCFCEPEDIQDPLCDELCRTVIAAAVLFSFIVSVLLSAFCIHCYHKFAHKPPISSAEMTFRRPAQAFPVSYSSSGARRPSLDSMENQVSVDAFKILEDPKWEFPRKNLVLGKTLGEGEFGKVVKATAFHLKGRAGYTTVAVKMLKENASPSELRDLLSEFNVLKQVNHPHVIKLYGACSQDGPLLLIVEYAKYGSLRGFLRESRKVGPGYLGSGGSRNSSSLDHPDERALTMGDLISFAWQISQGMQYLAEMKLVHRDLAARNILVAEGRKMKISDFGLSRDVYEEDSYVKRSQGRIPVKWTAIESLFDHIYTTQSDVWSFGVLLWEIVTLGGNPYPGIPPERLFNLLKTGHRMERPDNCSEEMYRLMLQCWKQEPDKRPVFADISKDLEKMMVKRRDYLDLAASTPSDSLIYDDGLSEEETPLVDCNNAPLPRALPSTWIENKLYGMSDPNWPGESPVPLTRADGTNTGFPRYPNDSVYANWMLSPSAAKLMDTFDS
UniProt Q9BRS2: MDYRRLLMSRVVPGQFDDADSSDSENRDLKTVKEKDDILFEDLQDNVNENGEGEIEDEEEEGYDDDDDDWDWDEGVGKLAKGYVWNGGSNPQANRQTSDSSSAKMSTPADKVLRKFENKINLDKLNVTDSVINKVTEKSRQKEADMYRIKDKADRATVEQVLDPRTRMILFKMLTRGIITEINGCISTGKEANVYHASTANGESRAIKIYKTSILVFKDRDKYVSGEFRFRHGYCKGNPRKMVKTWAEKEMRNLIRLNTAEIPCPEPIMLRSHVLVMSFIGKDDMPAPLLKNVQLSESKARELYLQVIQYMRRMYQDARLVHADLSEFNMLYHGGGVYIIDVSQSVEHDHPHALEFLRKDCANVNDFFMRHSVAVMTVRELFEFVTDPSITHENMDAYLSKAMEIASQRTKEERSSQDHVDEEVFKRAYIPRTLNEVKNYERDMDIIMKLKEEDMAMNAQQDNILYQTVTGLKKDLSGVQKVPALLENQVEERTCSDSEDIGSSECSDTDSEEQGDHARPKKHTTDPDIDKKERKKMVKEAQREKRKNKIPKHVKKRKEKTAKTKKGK
UniProt Q9Y6E0: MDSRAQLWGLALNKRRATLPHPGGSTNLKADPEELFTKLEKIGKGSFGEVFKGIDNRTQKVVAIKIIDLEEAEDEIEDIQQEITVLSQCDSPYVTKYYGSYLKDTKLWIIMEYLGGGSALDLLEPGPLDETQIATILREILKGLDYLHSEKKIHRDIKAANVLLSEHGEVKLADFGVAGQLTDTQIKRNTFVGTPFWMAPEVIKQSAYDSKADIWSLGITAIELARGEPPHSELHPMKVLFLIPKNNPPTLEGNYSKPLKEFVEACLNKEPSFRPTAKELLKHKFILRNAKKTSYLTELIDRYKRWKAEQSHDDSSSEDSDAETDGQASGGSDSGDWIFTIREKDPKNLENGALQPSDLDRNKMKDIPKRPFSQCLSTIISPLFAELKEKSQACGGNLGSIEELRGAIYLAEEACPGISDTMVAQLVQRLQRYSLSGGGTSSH
UniProt Q15208: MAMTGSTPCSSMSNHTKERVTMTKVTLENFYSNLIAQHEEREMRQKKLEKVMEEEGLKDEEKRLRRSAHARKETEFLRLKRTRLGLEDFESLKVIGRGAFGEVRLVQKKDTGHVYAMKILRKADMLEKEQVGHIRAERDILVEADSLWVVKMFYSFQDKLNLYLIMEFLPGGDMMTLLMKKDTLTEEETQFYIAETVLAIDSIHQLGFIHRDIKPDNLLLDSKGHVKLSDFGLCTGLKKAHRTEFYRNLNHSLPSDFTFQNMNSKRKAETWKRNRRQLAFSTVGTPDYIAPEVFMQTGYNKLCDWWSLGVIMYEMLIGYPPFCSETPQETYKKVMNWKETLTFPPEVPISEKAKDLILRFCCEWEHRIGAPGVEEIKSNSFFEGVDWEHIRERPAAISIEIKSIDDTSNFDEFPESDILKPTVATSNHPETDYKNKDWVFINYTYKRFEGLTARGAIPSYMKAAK
UniProt P42680: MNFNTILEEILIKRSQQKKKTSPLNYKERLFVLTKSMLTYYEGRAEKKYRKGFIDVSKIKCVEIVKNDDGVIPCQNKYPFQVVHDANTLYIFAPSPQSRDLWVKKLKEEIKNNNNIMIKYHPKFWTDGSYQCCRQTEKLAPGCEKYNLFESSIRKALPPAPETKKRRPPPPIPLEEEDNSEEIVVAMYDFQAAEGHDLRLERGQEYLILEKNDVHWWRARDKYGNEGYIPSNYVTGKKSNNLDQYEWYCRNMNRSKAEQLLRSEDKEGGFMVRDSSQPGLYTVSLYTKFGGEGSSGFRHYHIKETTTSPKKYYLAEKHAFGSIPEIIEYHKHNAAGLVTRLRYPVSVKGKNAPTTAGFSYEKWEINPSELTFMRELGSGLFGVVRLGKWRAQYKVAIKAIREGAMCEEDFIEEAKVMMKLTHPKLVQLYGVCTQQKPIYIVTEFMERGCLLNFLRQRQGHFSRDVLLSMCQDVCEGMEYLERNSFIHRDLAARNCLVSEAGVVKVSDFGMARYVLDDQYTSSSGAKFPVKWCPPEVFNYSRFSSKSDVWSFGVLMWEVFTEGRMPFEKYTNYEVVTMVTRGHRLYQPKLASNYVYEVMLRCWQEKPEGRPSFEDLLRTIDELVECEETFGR
UniProt P29597: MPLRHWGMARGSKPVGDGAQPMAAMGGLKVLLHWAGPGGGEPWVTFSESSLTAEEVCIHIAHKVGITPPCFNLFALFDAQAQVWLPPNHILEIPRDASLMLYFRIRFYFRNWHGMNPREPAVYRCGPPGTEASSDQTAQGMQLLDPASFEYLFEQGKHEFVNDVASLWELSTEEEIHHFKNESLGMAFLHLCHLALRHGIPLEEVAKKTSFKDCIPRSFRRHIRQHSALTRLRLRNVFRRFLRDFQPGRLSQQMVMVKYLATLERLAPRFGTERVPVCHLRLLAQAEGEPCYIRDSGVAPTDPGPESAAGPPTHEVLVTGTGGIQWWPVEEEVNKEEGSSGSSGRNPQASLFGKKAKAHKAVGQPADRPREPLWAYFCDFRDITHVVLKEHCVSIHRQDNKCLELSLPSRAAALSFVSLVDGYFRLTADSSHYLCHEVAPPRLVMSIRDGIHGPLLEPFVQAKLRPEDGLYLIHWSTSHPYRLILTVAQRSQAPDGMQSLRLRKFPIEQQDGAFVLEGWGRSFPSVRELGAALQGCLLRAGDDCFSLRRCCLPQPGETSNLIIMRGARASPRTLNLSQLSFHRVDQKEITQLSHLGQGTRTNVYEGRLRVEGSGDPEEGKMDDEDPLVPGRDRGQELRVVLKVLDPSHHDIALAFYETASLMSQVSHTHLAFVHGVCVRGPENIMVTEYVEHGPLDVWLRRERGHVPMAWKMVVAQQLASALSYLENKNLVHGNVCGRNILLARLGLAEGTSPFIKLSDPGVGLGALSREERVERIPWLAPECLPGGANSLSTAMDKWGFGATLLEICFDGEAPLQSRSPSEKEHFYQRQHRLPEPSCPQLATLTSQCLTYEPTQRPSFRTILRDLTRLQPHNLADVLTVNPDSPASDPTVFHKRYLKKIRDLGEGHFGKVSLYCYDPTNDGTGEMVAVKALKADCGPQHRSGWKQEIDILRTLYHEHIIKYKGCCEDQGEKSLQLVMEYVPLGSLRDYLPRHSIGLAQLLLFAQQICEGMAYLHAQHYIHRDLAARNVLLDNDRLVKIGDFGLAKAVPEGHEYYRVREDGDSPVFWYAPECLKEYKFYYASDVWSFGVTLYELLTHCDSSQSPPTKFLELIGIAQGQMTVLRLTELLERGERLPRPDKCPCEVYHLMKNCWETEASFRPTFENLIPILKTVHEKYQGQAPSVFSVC
UniProt Q6PHR2: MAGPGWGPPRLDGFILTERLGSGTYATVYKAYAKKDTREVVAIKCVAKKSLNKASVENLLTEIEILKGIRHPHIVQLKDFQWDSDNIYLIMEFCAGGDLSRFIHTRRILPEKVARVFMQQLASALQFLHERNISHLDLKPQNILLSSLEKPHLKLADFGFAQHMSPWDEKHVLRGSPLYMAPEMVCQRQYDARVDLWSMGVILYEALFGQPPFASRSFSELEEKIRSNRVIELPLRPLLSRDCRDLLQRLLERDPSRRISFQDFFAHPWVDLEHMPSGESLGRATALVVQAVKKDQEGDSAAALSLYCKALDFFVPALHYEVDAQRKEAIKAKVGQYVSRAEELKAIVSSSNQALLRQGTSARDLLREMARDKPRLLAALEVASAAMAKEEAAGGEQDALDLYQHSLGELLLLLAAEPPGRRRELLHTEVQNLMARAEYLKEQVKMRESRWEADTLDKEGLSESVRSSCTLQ
UniProt P31749: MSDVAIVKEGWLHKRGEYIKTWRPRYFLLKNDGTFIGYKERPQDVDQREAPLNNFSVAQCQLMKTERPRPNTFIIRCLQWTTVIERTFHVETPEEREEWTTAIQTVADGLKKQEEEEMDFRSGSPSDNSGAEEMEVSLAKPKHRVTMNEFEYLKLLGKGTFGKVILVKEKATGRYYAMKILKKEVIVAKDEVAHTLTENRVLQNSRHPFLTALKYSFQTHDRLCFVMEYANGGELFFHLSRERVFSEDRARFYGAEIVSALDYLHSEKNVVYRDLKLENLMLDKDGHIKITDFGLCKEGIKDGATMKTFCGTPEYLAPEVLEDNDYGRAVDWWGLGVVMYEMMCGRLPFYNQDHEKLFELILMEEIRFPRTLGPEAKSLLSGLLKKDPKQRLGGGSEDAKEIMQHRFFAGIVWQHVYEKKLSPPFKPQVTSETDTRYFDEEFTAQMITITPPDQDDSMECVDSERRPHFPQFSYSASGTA

Assays:
Details in all cases: K562; 2-18 h
[1] = target: RET (UniProt P07949); assay: kinase-Nluc reporter destabilization hit call (1 = scored as downregulated) (binary); higher = compound decreases kinase abundance
[2] = target: RET_M918T (clone: RET_mut) (UniProt P07949); assay: as above
[3] = target: RIOK1 (UniProt Q9BRS2); assay: as above
[4] = target: RIPK1 (UniProt Q13546); assay: as above
[5] = target: RIPK2 (UniProt O43353); assay: as above
[6] = target: ROR2 (UniProt Q01974); assay: as above
[7] = target: RPS6KA1 (UniProt Q15418); assay: as above
[8] = target: SPHK1 (UniProt Q9NYA1); assay: as above
[9] = target: SRC (UniProt P12931); assay: as above
[10] = target: STK24 (UniProt Q9Y6E0); assay: as above
[11] = target: STK38 (UniProt Q15208); assay: as above
[12] = target: SYK (UniProt P43405); assay: as above
[13] = target: TEC (UniProt P42680); assay: as above
[14] = target: TYK2 (UniProt P29597); assay: as above
[15] = target: ULK3 (UniProt Q6PHR2); assay: as above
[16] = target: YES1 (UniProt P07947); assay: as above
[17] = target: ZAK (UniProt Q9NYL2); assay: as above
[18] = target: ZAP70 (UniProt P43403); assay: as above
[19] = target: ABL1 (UniProt P00519); assay: number of time points (of 5) at which kinase-Nluc abundance scored as decreased, DMSO-normalised (count); higher = more persistent destabilization
[20] = target: AKT1 (UniProt P31749); assay: as above

Cc1ncsc1-c1ccc(CNC(=O)[C@@H]2C[C@@H](O)CN2C(=O)[C@@H](NC(=O)COCCOc2ccc(-c3cc(Nc4ccc(OC(F)(F)F)cc4)ncn3)cc2)C(C)(C)C)cc1 (2.5 µM)
0: number of time points [20]
5: number of time points [19]
inactive: kinase-Nluc reporter destabilization hit call [1] 0 | kinase-Nluc reporter destabilization hit call [2] 0 | kinase-Nluc reporter destabilization hit call [3] 0 | kinase-Nluc reporter destabilization hit call [4] 0 | kinase-Nluc reporter destabilization hit call [5] 0 | kinase-Nluc reporter destabilization hit call [6] 0 | kinase-Nluc reporter destabilization hit call [7] 0 | kinase-Nluc reporter destabilization hit call [8] 0 | kinase-Nluc reporter destabilization hit call [9] 0 | kinase-Nluc reporter destabilization hit call [10] 0 | kinase-Nluc reporter destabilization hit call [11] 0 | kinase-Nluc reporter destabilization hit call [12] 0 | kinase-Nluc reporter destabilization hit call [13] 0 | kinase-Nluc reporter destabilization hit call [14] 0 | kinase-Nluc reporter destabilization hit call [15] 0 | kinase-Nluc reporter destabilization hit call [16] 0 | kinase-Nluc reporter destabilization hit call [17] 0 | kinase-Nluc reporter destabilization hit call [18] 0

COC(=O)N1CCN(C2CCC(Nc3nc(Nc4cnn(C)c4)nc4ccc(CC#N)nc34)CC2)CC1 (stereo not given) (10 µM)
0: number of time points [19] | number of time points [20]
inactive: kinase-Nluc reporter destabilization hit call [1] 0 | kinase-Nluc reporter destabilization hit call [2] 0 | kinase-Nluc reporter destabilization hit call [3] 0 | kinase-Nluc reporter destabilization hit call [4] 0 | kinase-Nluc reporter destabilization hit call [5] 0 | kinase-Nluc reporter destabilization hit call [6] 0 | kinase-Nluc reporter destabilization hit call [7] 0 | kinase-Nluc reporter destabilization hit call [8] 0 | kinase-Nluc reporter destabilization hit call [9] 0 | kinase-Nluc reporter destabilization hit call [10] 0 | kinase-Nluc reporter destabilization hit call [11] 0 | kinase-Nluc reporter destabilization hit call [12] 0 | kinase-Nluc reporter destabilization hit call [13] 0 | kinase-Nluc reporter destabilization hit call [14] 0 | kinase-Nluc reporter destabilization hit call [15] 0 | kinase-Nluc reporter destabilization hit call [16] 0 | kinase-Nluc reporter destabilization hit call [17] 0 | kinase-Nluc reporter destabilization hit call [18] 0

O=C1CCC(N2C(=O)c3cccc(OCCCCCOc4ccc(CC(=O)Nc5cc(C6CCC6)[nH]n5)cc4)c3C2=O)C(=O)N1 (stereo not given) [PROTAC CDK9 Degrader-1] (10 µM)
0: number of time points [19] | number of time points [20]
inactive: kinase-Nluc reporter destabilization hit call [1] 0 | kinase-Nluc reporter destabilization hit call [2] 0 | kinase-Nluc reporter destabilization hit call [3] 0 | kinase-Nluc reporter destabilization hit call [4] 0 | kinase-Nluc reporter destabilization hit call [5] 0 | kinase-Nluc reporter destabilization hit call [6] 0 | kinase-Nluc reporter destabilization hit call [7] 0 | kinase-Nluc reporter destabilization hit call [8] 0 | kinase-Nluc reporter destabilization hit call [9] 0 | kinase-Nluc reporter destabilization hit call [10] 0 | kinase-Nluc reporter destabilization hit call [11] 0 | kinase-Nluc reporter destabilization hit call [12] 0 | kinase-Nluc reporter destabilization hit call [13] 0 | kinase-Nluc reporter destabilization hit call [14] 0 | kinase-Nluc reporter destabilization hit call [15] 0 | kinase-Nluc reporter destabilization hit call [16] 0 | kinase-Nluc reporter destabilization hit call [17] 0 | kinase-Nluc reporter destabilization hit call [18] 0

CN(C)CCn1cc2cc(NC(=O)c3cccc(C(F)(F)F)n3)c(C(C)(C)O)cc2n1 (10 µM)
inactive: kinase-Nluc reporter destabilization hit call [1] 0 | kinase-Nluc reporter destabilization hit call [2] 0 | kinase-Nluc reporter destabilization hit call [3] 0 | kinase-Nluc reporter destabilization hit call [4] 0 | kinase-Nluc reporter destabilization hit call [5] 0 | kinase-Nluc reporter destabilization hit call [6] 0 | kinase-Nluc reporter destabilization hit call [7] 0 | kinase-Nluc reporter destabilization hit call [8] 0 | kinase-Nluc reporter destabilization hit call [9] 0 | kinase-Nluc reporter destabilization hit call [10] 0 | kinase-Nluc reporter destabilization hit call [11] 0 | kinase-Nluc reporter destabilization hit call [12] 0 | kinase-Nluc reporter destabilization hit call [13] 0 | kinase-Nluc reporter destabilization hit call [14] 0 | kinase-Nluc reporter destabilization hit call [15] 0 | kinase-Nluc reporter destabilization hit call [16] 0 | kinase-Nluc reporter destabilization hit call [17] 0 | kinase-Nluc reporter destabilization hit call [18] 0
0: number of time points [19] | number of time points [20]

Cc1cncc2cccc(S(=O)(=O)N3CCCNC[C@@H]3C)c12 [H-1152 (dihydrochloride)] (10 µM)
inactive: kinase-Nluc reporter destabilization hit call [1] 0 | kinase-Nluc reporter destabilization hit call [2] 0 | kinase-Nluc reporter destabilization hit call [3] 0 | kinase-Nluc reporter destabilization hit call [4] 0 | kinase-Nluc reporter destabilization hit call [5] 0 | kinase-Nluc reporter destabilization hit call [6] 0 | kinase-Nluc reporter destabilization hit call [7] 0 | kinase-Nluc reporter destabilization hit call [8] 0 | kinase-Nluc reporter destabilization hit call [9] 0 | kinase-Nluc reporter destabilization hit call [10] 0 | kinase-Nluc reporter destabilization hit call [11] 0 | kinase-Nluc reporter destabilization hit call [12] 0 | kinase-Nluc reporter destabilization hit call [13] 0 | kinase-Nluc reporter destabilization hit call [14] 0 | kinase-Nluc reporter destabilization hit call [15] 0 | kinase-Nluc reporter destabilization hit call [16] 0 | kinase-Nluc reporter destabilization hit call [17] 0 | kinase-Nluc reporter destabilization hit call [18] 0
0: number of time points [19] | number of time points [20]

Cc1n[nH]c2ncc(C(=O)N3CCC[C@H]3c3ccc(Cl)cc3)cc12 (10 µM)
0: number of time points [19] | number of time points [20]
inactive: kinase-Nluc reporter destabilization hit call [1] 0 | kinase-Nluc reporter destabilization hit call [2] 0 | kinase-Nluc reporter destabilization hit call [3] 0 | kinase-Nluc reporter destabilization hit call [4] 0 | kinase-Nluc reporter destabilization hit call [5] 0 | kinase-Nluc reporter destabilization hit call [6] 0 | kinase-Nluc reporter destabilization hit call [7] 0 | kinase-Nluc reporter destabilization hit call [8] 0 | kinase-Nluc reporter destabilization hit call [9] 0 | kinase-Nluc reporter destabilization hit call [10] 0 | kinase-Nluc reporter destabilization hit call [11] 0 | kinase-Nluc reporter destabilization hit call [12] 0 | kinase-Nluc reporter destabilization hit call [13] 0 | kinase-Nluc reporter destabilization hit call [14] 0 | kinase-Nluc reporter destabilization hit call [15] 0 | kinase-Nluc reporter destabilization hit call [16] 0 | kinase-Nluc reporter destabilization hit call [17] 0 | kinase-Nluc reporter destabilization hit call [18] 0

CN(C)CCOc1cc(-c2cn[nH]c2)ccc1NC(=O)C1COc2ccccc2O1 (stereo not given) (10 µM)
0: number of time points [19] | number of time points [20]
inactive: kinase-Nluc reporter destabilization hit call [1] 0 | kinase-Nluc reporter destabilization hit call [2] 0 | kinase-Nluc reporter destabilization hit call [3] 0 | kinase-Nluc reporter destabilization hit call [4] 0 | kinase-Nluc reporter destabilization hit call [5] 0 | kinase-Nluc reporter destabilization hit call [6] 0 | kinase-Nluc reporter destabilization hit call [7] 0 | kinase-Nluc reporter destabilization hit call [8] 0 | kinase-Nluc reporter destabilization hit call [9] 0 | kinase-Nluc reporter destabilization hit call [10] 0 | kinase-Nluc reporter destabilization hit call [11] 0 | kinase-Nluc reporter destabilization hit call [12] 0 | kinase-Nluc reporter destabilization hit call [13] 0 | kinase-Nluc reporter destabilization hit call [14] 0 | kinase-Nluc reporter destabilization hit call [15] 0 | kinase-Nluc reporter destabilization hit call [16] 0 | kinase-Nluc reporter destabilization hit call [17] 0 | kinase-Nluc reporter destabilization hit call [18] 0

O=c1c(O)c(-c2ccc(O)c(O)c2)oc2cc(O)c(O)c(O)c12 [Quercetagetin] (10 µM)
0: number of time points [19] | number of time points [20]
inactive: kinase-Nluc reporter destabilization hit call [1] 0 | kinase-Nluc reporter destabilization hit call [2] 0 | kinase-Nluc reporter destabilization hit call [3] 0 | kinase-Nluc reporter destabilization hit call [4] 0 | kinase-Nluc reporter destabilization hit call [5] 0 | kinase-Nluc reporter destabilization hit call [6] 0 | kinase-Nluc reporter destabilization hit call [7] 0 | kinase-Nluc reporter destabilization hit call [8] 0 | kinase-Nluc reporter destabilization hit call [9] 0 | kinase-Nluc reporter destabilization hit call [10] 0 | kinase-Nluc reporter destabilization hit call [11] 0 | kinase-Nluc reporter destabilization hit call [12] 0 | kinase-Nluc reporter destabilization hit call [13] 0 | kinase-Nluc reporter destabilization hit call [14] 0 | kinase-Nluc reporter destabilization hit call [15] 0 | kinase-Nluc reporter destabilization hit call [16] 0 | kinase-Nluc reporter destabilization hit call [17] 0 | kinase-Nluc reporter destabilization hit call [18] 0

At a glance, 2 of the compounds above.
Cc1cncc2cccc(S(=O)(=O)N3CCCNC[C@@H]3C)c12 [H-1152 (dihydrochloride)] (10 µM)
inactive: kinase-Nluc reporter destabilization hit call [1] 0 | kinase-Nluc reporter destabilization hit call [2] 0 | kinase-Nluc reporter destabilization hit call [3] 0 | kinase-Nluc reporter destabilization hit call [4] 0 | kinase-Nluc reporter destabilization hit call [5] 0 | kinase-Nluc reporter destabilization hit call [6] 0 | kinase-Nluc reporter destabilization hit call [7] 0 | kinase-Nluc reporter destabilization hit call [8] 0 | kinase-Nluc reporter destabilization hit call [9] 0 | kinase-Nluc reporter destabilization hit call [10] 0 | kinase-Nluc reporter destabilization hit call [11] 0 | kinase-Nluc reporter destabilization hit call [12] 0 | kinase-Nluc reporter destabilization hit call [13] 0 | kinase-Nluc reporter destabilization hit call [14] 0 | kinase-Nluc reporter destabilization hit call [15] 0 | kinase-Nluc reporter destabilization hit call [16] 0 | kinase-Nluc reporter destabilization hit call [17] 0 | kinase-Nluc reporter destabilization hit call [18] 0
0: number of time points [19] | number of time points [20]

Cc1n[nH]c2ncc(C(=O)N3CCC[C@H]3c3ccc(Cl)cc3)cc12 (10 µM)
0: number of time points [19] | number of time points [20]
inactive: kinase-Nluc reporter destabilization hit call [1] 0 | kinase-Nluc reporter destabilization hit call [2] 0 | kinase-Nluc reporter destabilization hit call [3] 0 | kinase-Nluc reporter destabilization hit call [4] 0 | kinase-Nluc reporter destabilization hit call [5] 0 | kinase-Nluc reporter destabilization hit call [6] 0 | kinase-Nluc reporter destabilization hit call [7] 0 | kinase-Nluc reporter destabilization hit call [8] 0 | kinase-Nluc reporter destabilization hit call [9] 0 | kinase-Nluc reporter destabilization hit call [10] 0 | kinase-Nluc reporter destabilization hit call [11] 0 | kinase-Nluc reporter destabilization hit call [12] 0 | kinase-Nluc reporter destabilization hit call [13] 0 | kinase-Nluc reporter destabilization hit call [14] 0 | kinase-Nluc reporter destabilization hit call [15] 0 | kinase-Nluc reporter destabilization hit call [16] 0 | kinase-Nluc reporter destabilization hit call [17] 0 | kinase-Nluc reporter destabilization hit call [18] 0

Remaining list, next part:

COc1cc2nc(NC3CC3)nc(NC3CCN(C(C)C)CC3)c2cc1OC (10 µM)
0: number of time points [20]
inactive: kinase-Nluc reporter destabilization hit call [1] 0 | kinase-Nluc reporter destabilization hit call [2] 0 | kinase-Nluc reporter destabilization hit call [3] 0 | kinase-Nluc reporter destabilization hit call [4] 0 | kinase-Nluc reporter destabilization hit call [5] 0 | kinase-Nluc reporter destabilization hit call [6] 0 | kinase-Nluc reporter destabilization hit call [7] 0 | kinase-Nluc reporter destabilization hit call [8] 0 | kinase-Nluc reporter destabilization hit call [9] 0 | kinase-Nluc reporter destabilization hit call [10] 0 | kinase-Nluc reporter destabilization hit call [11] 0 | kinase-Nluc reporter destabilization hit call [12] 0 | kinase-Nluc reporter destabilization hit call [13] 0 | kinase-Nluc reporter destabilization hit call [14] 0 | kinase-Nluc reporter destabilization hit call [15] 0 | kinase-Nluc reporter destabilization hit call [16] 0 | kinase-Nluc reporter destabilization hit call [17] 0 | kinase-Nluc reporter destabilization hit call [18] 0
2: number of time points [19]

Cc1ccc2c(NS(=O)(=O)c3ccccc3Cl)cccc2c1Oc1ncccc1-c1ccnc(N[C@H]2CCCNC2)n1 (2.5 µM)
inactive: kinase-Nluc reporter destabilization hit call [1] 0 | kinase-Nluc reporter destabilization hit call [2] 0 | kinase-Nluc reporter destabilization hit call [3] 0 | kinase-Nluc reporter destabilization hit call [4] 0 | kinase-Nluc reporter destabilization hit call [5] 0 | kinase-Nluc reporter destabilization hit call [6] 0 | kinase-Nluc reporter destabilization hit call [7] 0 | kinase-Nluc reporter destabilization hit call [8] 0 | kinase-Nluc reporter destabilization hit call [9] 0 | kinase-Nluc reporter destabilization hit call [10] 0 | kinase-Nluc reporter destabilization hit call [11] 0 | kinase-Nluc reporter destabilization hit call [12] 0 | kinase-Nluc reporter destabilization hit call [13] 0 | kinase-Nluc reporter destabilization hit call [14] 0 | kinase-Nluc reporter destabilization hit call [15] 0 | kinase-Nluc reporter destabilization hit call [16] 0 | kinase-Nluc reporter destabilization hit call [17] 0 | kinase-Nluc reporter destabilization hit call [18] 0
0: number of time points [19] | number of time points [20]
